PubChem BioAssay AID1508588 | Peter MacCallum Cancer Centre, 2020

- Purpose: 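Genome-wide search for knock-downs that heighten vemurafenib action in melanoma cells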 (primary screen)
- Cell system: human WM266.4 melanoma cells (BRAF V600 mutant)
- Knock-down reagent: siRNA pool against human genes, 40 nM
- Timing: 96 h from transfection to read-out
- Conditions: vemurafenib 300 nM (about IC25), added 48 h after transfection, for 48 h; comparison arm got DMSO vehicle only
- Measured: 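Cell gain (DAPI nuclei at end minus before drug, mean of two replicates) and medium lactate by absorbance per cell, both as ratio to non-targeting siRNA, also grouped into fold-change classes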
- Scale: cell gain with vemurafenib: higher = more cell gain than with non-targeting siRNA; lactate per cell with vemurafenib: higher = more lactate made per cell
- Call rule: 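Enhancement is called by pairing each knock-down's vehicle-arm and drug-arm fold-change classes for viability or glycolysis; which class combinations qualify is not given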
- Calls: active = enhances vemurafenib effect; inactive = no enhancement seen
Shown is one part, drawn at random, of about 18,000 reagents tested. Over the whole deposit, 790 (4.4%) were called active. 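Calls rest on a combination of fold-change classes in drug and vehicle arms, not all shown here.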 Entries without a mark were called inactive.

gene symbol	cell gain with vemurafenib	lactate per cell with vemurafenib
BAGE3	0.19	0.46
PGAM4	0.39	1.62
FAAP24	0.94	0.76
S100A4	0.04	1.48
G6PC3	0.48	0.62
FCRL1	0.6	0.27
TBC1D25	0.03	2.51
SPTA1	0.31	0.73
LAMTOR4	0.87	0.68
FLT3	0.43	0.48
NACA2	1.32	0.88
ZBTB39	0.71	1.52
SIGLEC9	1.07	0.7
CFAP20	1.15	0.9
GYG2	1.13	1.09
SH3BGR	0.43	0.27
TMEM86B	0.56	1.54
HOXB8	0.32	1.13
AQP5	0.8	0.92

Continued; the last 3 above are carried over.
gene symbol	cell gain with vemurafenib	lactate per cell with vemurafenib
TMEM86B	0.56	1.54
HOXB8	0.32	1.13
AQP5	0.8	0.92
AAGAB	0.56	0.42
VAPB	0.64	0.76
ST18	1.17	0.82
AEN	0.54	1.15
AKT2	0.51	1
PHACTR1	0.44	0.8
THAP6	0.24	0.84
PACSIN1	0.67 (active)	0.42
ZSCAN10	0.26	0.76
APRT	0.77	0.9
DNAJB11	0.28	0.94
ARL14EP	0.55	0.33
SMG6	0.5 (active)	0.04
PLXDC2	0.53	0.45
SNAPC4	0.12	0.94
GALNT1	0.48	1.5
KIAA1143	0.74	1.37
SAMD9	0.34	0.48
MAMDC2	0.93	0.74
ZC3H10	0.28	1.13
MAB21L2	0.42	1.73
GSDMB	0.44 (active)	0.34
NFE4	0.68	0.74
CT55	0.88	0.58
GRIN1	0.44	2.53
DNAJB8	0.6	0.91
KLRG2	0.47	0.86
UBE2E3	0.3	2.07
SLAMF9	0.92	0.9
MISP	0.83	0.94
ZYX	0.55	1.64
LRIG2	0.56	0.6
ANAPC13	0.73	0.84
PROK2	0.45	0.7
ZNF233	0.74	1.17
FUT4	0.54	1.24
HSD3B7	0.5	0.8
PDCD6IP	0.82 (active)	0.33
